Data taken from PubChem BioAssay AID248 (DTP/NCI, 2004).
The list is a part of this screen's results and no random one: it gathers tests that were run many times, whatever their T/C, doses with no T/C, and many T/C values between a quarter and a half above the control. Other doses and runs of a compound stand elsewhere. T/C: endpoint of the treated group in % of that of the vehicle group. Some doses have a count of surviving animals in place of a T/C: the source files T/C as zero there, which appears to mark a toxic dose or a test without result, not a measured value. Some survivor counts are full or nearly so, which does not show that the dose was tolerated: the source hardly ever lists a survival T/C far under the control, and the zero likely stands for such cases as well. Survivors were counted at the toxicity check, usually on the fifth day, unless a day is given; later deaths do not show. Schedules are NCI's codes, taken here to give the interval after Q, in days (D) or hours (H), and the number of doses after X. Some schedules carry Z or #; the key to these is not given. Some entries were tested several times; their values stand side by side, smallest first. Where survival is the endpoint, this PubChem deposit counts one and a half times the control or more as active, and values a quarter to a half above the control carry no call in these data; other NCI protocols may use other cut-offs. Some T/C values are followed by the survivors on the day toxicity was checked, most often the fifth; without a count, all were alive then.

System: L1210 leukemia ip in BDF1 mice, survival T/C
Assay: NCI In Vivo Anticancer Drug Screen. Data for tumor model L1210 Leukemia (intraperitoneal) in B6D2F1 (BDF1) mice
Details: T/C endpoint: mean survival time, higher T/C = longer survival
[1] = dose: 100.0 mg/kg/injection, schedule: Q04DX002 (ip), vehicle: saline
[2] = dose: 200.0 mg/kg/injection, schedule: Q04DX002 (ip), vehicle: saline
[3] = dose: 400.0 mg/kg/injection, schedule: Q04DX002 (ip), vehicle: saline
[4] = dose: 100.0 mg/kg/injection, schedule: Q01DX009 (ip), vehicle: saline
[5] = dose: 400.0 mg/kg/injection, schedule: Q04DX003 (ip), vehicle: saline
[6] = dose: 100.0 mg/kg/injection, schedule: Q04DX003 (ip), vehicle: saline
[7] = dose: 200.0 mg/kg/injection, schedule: Q04DX002 (ip), vehicle: saline with Tween-80
[8] = dose: 400.0 mg/kg/injection, schedule: Q04DX002 (ip), vehicle: saline with Tween-80
[9] = dose: 200.0 mg/kg/injection, schedule: Q04DX003 (ip), vehicle: Klucel (hydroxypropylcellulose) (HPC)
[10] = dose: 400.0 mg/kg/injection, schedule: Q04DX003 (ip), vehicle: Klucel (hydroxypropylcellulose) (HPC)
[11] = dose: 100.0 mg/kg/injection, schedule: Q01DX001 (ip), vehicle: saline
[12] = dose: 200.0 mg/kg/injection, schedule: Q01DX001 (ip), vehicle: saline
[13] = dose: 400.0 mg/kg/injection, schedule: Q01DX001 (ip), vehicle: saline

For `CC[N+](C)(C)C`, the survivor count [1] was 2 of 3, the survivor count [2] was 0 of 3 and the survivor count [3] was 0 of 3.
`CSc1ccc(C(=O)CCl)c(C)c1` was tested, and the survivor count (dose: 100.0 mg/kg/injection, schedule: Q01DX001 (ip), vehicle: carboxymethylcellulose (CMC)) was 0 of 6, the survivor count (dose: 200.0 mg/kg/injection, schedule: Q01DX001 (ip), vehicle: carboxymethylcellulose (CMC)) was 1 of 6 and the survivor count (dose: 400.0 mg/kg/injection, schedule: Q01DX001 (ip), vehicle: carboxymethylcellulose (CMC)) was 0 of 6.
For `NCc1ccc(NC(=O)c2ccc(C(=O)Nc3ccc(CN)cc3)cc2)cc1`, the survivor count (dose: 56.0 mg/kg/injection, schedule: Q01DX Z (ip), vehicle: water) was 1 of 6, the survivor count (dose: 112.0 mg/kg/injection, schedule: Q01DX Z (ip), vehicle: water) was 0 of 6 and the survivor count (dose: 225.0 mg/kg/injection, schedule: Q01DX Z (ip), vehicle: water) was 0 of 6. The survivor count (dose: 450.0 mg/kg/injection, schedule: Q01DX Z (ip), vehicle: water) was 0 of 6.
In the case of `C[Se]c1ncnc2c1ccn2C1OC(CO)C(O)C1O` (stereo not given), the survivor count (dose: 100.0 mg/kg/injection, schedule: Q01DX005 (ip), vehicle: saline) is reported as 0 of 6, the survivor count [4] is reported as 4 of 6 and the survivor count (dose: 200.0 mg/kg/injection, schedule: Q01DX005 (ip), vehicle: saline) is reported as 0 of 6. For the same compound, the survivor count (dose: 200.0 mg/kg/injection, schedule: Q01DX009 (ip), vehicle: saline) was 4 of 6.
In the case of `Cc1ncc(CCl)c(CCl)c1O`, the survivor count [5] is reported as 1 of 6.
`O=C1N(CO)C2C(N1CO)N(CO)C(=O)N2CO` (stereo not given) was tested, and the T/C [6] was 127 % of control.
For `O=C(CBr)Nc1nccs1`, the survivor count (dose: 25.0 mg/kg/injection, schedule: Q01DX009 (ip), vehicle: saline) was 0 of 6, the survivor count (dose: 50.0 mg/kg/injection, schedule: Q04DX003 (ip), vehicle: saline) was 0 of 6 and the survivor count [6] was 0 of 6. The survivor count (dose: 200.0 mg/kg/injection, schedule: Q04DX003 (ip), vehicle: saline) was 0 of 6 and the survivor count [5] was 0 of 6.
`CC(=O)OC1C=CCC2C(=O)C34CC=CC(OC(C)=O)C3(C(=O)c3ccccc3C4=O)C(=O)C12` (stereo not given) was tested, and the survivor count (dose: 75.0 mg/kg/injection, schedule: Q04DX003 (ip), vehicle: saline) was 6 of 6, the survivor count (dose: 150.0 mg/kg/injection, schedule: Q04DX003 (ip), vehicle: saline) was 6 of 6 and the survivor count (dose: 300.0 mg/kg/injection, schedule: Q04DX003 (ip), vehicle: saline) was 6 of 6.
`O=[N+]([O-])c1cc(C(F)(F)F)ccc1Cl` was tested, and the survivor count (dose: 400.0 mg/kg/injection, schedule: Q01DX009 (ip), vehicle: saline) was 3 of 6.
In the case of `Cc1ccc2c(c1)NP(=O)(c1ccccc1)S2` (stereo not given), the survivor count [7] is reported as 1 of 3 and the survivor count [8] is reported as 0 of 3.
With `COc1ccccc1OCCOCCN(C)C1CC2CCC1(C)C2(C)C` (stereo not given) the survivor count [9] was 1 of 6 and the survivor count [10] was 0 of 6.
With `O/N=C/c1ccccc1` the T/C (dose: 25.0 mg/kg/injection, schedule: Q01DX009 (ip), vehicle: saline with Tween-80) was 129 % of control, the T/C (dose: 50.0 mg/kg/injection, schedule: Q01DX009 (ip), vehicle: saline with Tween-80) was 131 % of control and the T/C (dose: 100.0 mg/kg/injection, schedule: Q01DX009 (ip), vehicle: saline with Tween-80) was 138 % of control.
With `Nc1cc(=S)c2[nH]cnc2[nH]1` the survivor count (dose: 200.0 mg/kg/injection, schedule: Q01DX001 (ip), vehicle: Klucel (hydroxypropylcellulose) (HPC)) was 6 of 6.
`O=C(COc1ccc(Cl)c(Cl)c1)NCc1ccc[n+](Cc2ccc(S(=O)(=O)F)cc2)c1` was tested, and the survivor count [9] was 2 of 6 and the survivor count [10] was 0 of 6.
With `CN(C)C(=O)Nc1ccncc1` the survivor count [11] was 1 of 6, the survivor count [4] was 0 of 3 and 0 of 6 and the survivor count (dose: 100.0 mg/kg/injection, schedule: Q04DX002 (ip), vehicle: saline with Tween-80) was 0 of 3, 1 of 6, 1 of 3. For the same compound, the survivor count [6] was 4 of 6, the survivor count [7] was 0 of 3 and 0 of 6 and the survivor count [8] was 0 of 3 and 0 of 6.
For `CSc1nc(Cl)cc(N2CC2)n1`, the survivor count (dose: 1.56 mg/kg/injection, schedule: Q01DX009 (ip), vehicle: saline) was 6 of 6, the survivor count (dose: 3.12 mg/kg/injection, schedule: Q04DX003 (ip), vehicle: saline) was 0 of 6 and the survivor count (dose: 6.25 mg/kg/injection, schedule: Q01DX001 (ip), vehicle: saline) was 3 of 6. The survivor count [11] was 0 of 6, the survivor count (dose: 133.0 mg/kg/injection, schedule: Q01DX Z (ip), vehicle: methylcellulose (MC)) was 6 of 6 and the survivor count [12] was 0 of 6. The survivor count (dose: 200.0 mg/kg/injection, schedule: Q01DX Z (ip), vehicle: methylcellulose (MC)) was 1 of 6 and the survivor count [13] was 0 of 6.
In the case of `C(=NC12CC3CC(CC(C3)C1)C2)c1ccccc1`, the survivor count [4] is reported as 4 of 6.
With `O=C(C#Cc1ccccc1)/C=C/c1ccccc1` the survivor count [10] was 1 of 6.
`CCOc1ccc(NC(C)=O)c(O)c1` was tested, and the survivor count (dose: 300.0 mg/kg/injection, schedule: Q01DX001 (ip), vehicle: saline) was 0 of 6.
With `O=C(Nc1cccc2ccccc12)OC1CCCCC1Br` (stereo not given) the survivor count (dose: 100.0 mg/kg/injection, schedule: Q01DX001 (ip), vehicle: saline with Tween-80) was 3 of 3.
For `CCC1CN2CCc3cc(OC)c(OC)cc3C2CC1O` (stereo not given), the survivor count (dose: 400.0 mg/kg/injection, schedule: Q01DX009 (ip), vehicle: saline with Tween-80) was 0 of 6.
`NC(=O)C1OC(n2cnc3c(N)ncnc32)C(O)C1O` (stereo not given) was tested, and the T/C (dose: 0.39 mg/kg/injection, schedule: Q01DX005 (ip), vehicle: saline) was 125 % of control [4 of 6 alive], the survivor count (dose: 0.78 mg/kg/injection, schedule: Q01DX005 (ip), vehicle: saline) was 0 of 6 and the survivor count (dose: 1.56 mg/kg/injection, schedule: Q01DX005 (ip), vehicle: saline) was 3 of 6. For the same compound, the survivor count (dose: 3.12 mg/kg/injection, schedule: Q01DX005 (ip), vehicle: saline) was 0 of 6, the survivor count (dose: 3.12 mg/kg/injection, schedule: Q01DX009 (ip), vehicle: saline) was 0 of 6 and the survivor count (dose: 6.25 mg/kg/injection, schedule: Q01DX005 (ip), vehicle: saline) was 0 of 6. For the same compound, the survivor count (dose: 12.5 mg/kg/injection, schedule: Q01DX005 (ip), vehicle: saline) was 0 of 6, the survivor count (dose: 25.0 mg/kg/injection, schedule: Q01DX005 (ip), vehicle: saline) was 0 of 6 and the survivor count (dose: 50.0 mg/kg/injection, schedule: Q01DX005 (ip), vehicle: saline) was 0 of 6.
For `Oc1ccc2ccccc2c1N=Nc1cc[c]([Hg][Cl])cc1`, the survivor count (dose: 80.0 mg/kg/injection, schedule: Q01DX001 (ip), vehicle: saline) was 0 of 4, the survivor count [11] was 0 of 4 and the survivor count [12] was 0 of 4. The survivor count [13] was 0 of 4.
In the case of `C1O[C@H]1[C@H]1CO1`, the survivor count (dose: 24.0 mg/kg/injection, schedule: Q01DX Z (ip), vehicle: saline) is reported as 0 of 6, the T/C (dose: 44.0 mg/kg/injection, schedule: Q01DX001 (ip), vehicle: saline) is reported as 125 % of control and the survivor count (dose: 66.0 mg/kg/injection, schedule: Q01DX001 (ip), vehicle: saline) is reported as 2 of 4. The survivor count [11] was 0 of 4 and the survivor count (dose: 150.0 mg/kg/injection, schedule: Q01DX001 (ip), vehicle: saline) was 0 of 4.
In the case of `CC(=O)n1cc(CS)c(=O)[nH]c1=O`, the survivor count [12] is reported as 2 of 6 and the survivor count [13] is reported as 2 of 6.
`CCCCCCCCN1CCCC(OC(=O)N(C)C)C1` (stereo not given) was tested, and the survivor count [1] was 1 of 3, the survivor count [2] was 0 of 3 and the survivor count [3] was 0 of 3.
In the case of `NC(N)=NC(N)=NCCCCc1ccccc1`, the survivor count (dose: 100.0 mg/kg/injection, schedule: Q04DX003 (ip), vehicle: Klucel (hydroxypropylcellulose) (HPC)) is reported as 0 of 3, the survivor count [9] is reported as 1 of 3 and the survivor count [10] is reported as 0 of 3.
